Results as given in patent US20130259829A1 (The Regents of the University of Colorado, A Body Corporate, priority 2008, published 2013).
Where a sequence shows no end group, the ends are not given. The same purity stands for every peptide and may come from a single statement.

Experiment: peptide made by a vendor
Details: whole synthesis

| Sequence | final HPLC purity |
| --- | --- |
| SGGGSKMRMATPLLMQALY (biotinylated) | >95% |
| KALVQNDTLLQVKG | >95% |
| FRIMAVLASSGGGANSGFRIMAVLASGGQY (biotinylated) | >95% |
| SKMRMATPLLMQALY | >95% |
| FRIMAVLASANSGFRIMAVLASGGQY | >95% |
